Results from PMC9033787.
Results are given in words; binding and its absence hold for the method and conditions named. In cells and extracts the contact can be indirect. Some binding calls cover weakened binding; strength is not graded here.

The chains behind the UniProt entries cited, without tags or fusion partners.
UniProt P70340: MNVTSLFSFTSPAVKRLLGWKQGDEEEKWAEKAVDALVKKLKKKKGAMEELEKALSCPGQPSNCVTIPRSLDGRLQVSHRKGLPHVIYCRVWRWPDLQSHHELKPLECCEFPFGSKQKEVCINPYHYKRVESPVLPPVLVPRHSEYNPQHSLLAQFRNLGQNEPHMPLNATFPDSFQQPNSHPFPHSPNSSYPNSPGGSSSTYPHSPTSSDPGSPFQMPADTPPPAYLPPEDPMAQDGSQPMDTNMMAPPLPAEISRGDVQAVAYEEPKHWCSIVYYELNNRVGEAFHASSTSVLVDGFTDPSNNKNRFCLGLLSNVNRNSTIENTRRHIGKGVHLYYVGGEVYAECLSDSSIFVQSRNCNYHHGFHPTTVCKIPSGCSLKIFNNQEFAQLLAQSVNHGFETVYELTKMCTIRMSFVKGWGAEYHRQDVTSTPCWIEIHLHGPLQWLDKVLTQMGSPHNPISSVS
UniProt P97471: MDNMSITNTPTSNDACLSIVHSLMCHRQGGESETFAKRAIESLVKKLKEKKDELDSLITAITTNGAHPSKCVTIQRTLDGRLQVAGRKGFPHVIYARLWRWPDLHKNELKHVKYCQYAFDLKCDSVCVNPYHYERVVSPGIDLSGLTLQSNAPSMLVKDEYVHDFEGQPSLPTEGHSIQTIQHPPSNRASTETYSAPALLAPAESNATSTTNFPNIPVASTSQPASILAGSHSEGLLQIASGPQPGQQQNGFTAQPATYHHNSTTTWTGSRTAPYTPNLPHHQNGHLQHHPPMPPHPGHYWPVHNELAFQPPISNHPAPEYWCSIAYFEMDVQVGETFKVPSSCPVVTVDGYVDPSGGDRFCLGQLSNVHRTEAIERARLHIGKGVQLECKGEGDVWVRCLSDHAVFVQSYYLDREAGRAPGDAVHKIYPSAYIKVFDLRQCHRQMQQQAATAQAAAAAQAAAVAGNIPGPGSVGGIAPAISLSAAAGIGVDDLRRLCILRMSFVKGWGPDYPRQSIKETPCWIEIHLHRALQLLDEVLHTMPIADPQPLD

T1: TGF-β-activated kinase 1 (TAK1) (mouse (endogenous in GA muscle)) (UniProt Q62073)
T1 sequence: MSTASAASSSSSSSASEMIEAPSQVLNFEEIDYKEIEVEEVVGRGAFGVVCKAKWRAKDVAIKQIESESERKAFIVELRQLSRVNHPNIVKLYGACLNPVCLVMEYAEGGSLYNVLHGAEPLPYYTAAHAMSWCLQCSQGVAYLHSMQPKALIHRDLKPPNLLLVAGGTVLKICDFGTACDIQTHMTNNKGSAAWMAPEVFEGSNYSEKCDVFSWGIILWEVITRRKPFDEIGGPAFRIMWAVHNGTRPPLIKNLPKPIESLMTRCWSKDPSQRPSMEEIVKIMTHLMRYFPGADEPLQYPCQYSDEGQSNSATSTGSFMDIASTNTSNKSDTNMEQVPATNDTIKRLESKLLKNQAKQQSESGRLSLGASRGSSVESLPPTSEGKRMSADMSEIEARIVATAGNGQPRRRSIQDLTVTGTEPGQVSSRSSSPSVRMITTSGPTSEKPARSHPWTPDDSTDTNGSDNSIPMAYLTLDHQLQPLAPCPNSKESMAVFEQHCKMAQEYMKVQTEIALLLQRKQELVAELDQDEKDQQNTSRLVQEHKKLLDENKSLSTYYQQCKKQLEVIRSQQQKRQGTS


Tests used:
[1] = biological target: T1, TGF-β-activated kinase 1 (TAK1) (mouse (endogenous in GA muscle)); experiment: co-IP; GA muscle extracts of sham-operated or 7d-denervated C57BL/6 mice; 700 µg protein extract incubated overnight at 4 °C with primary antibody against TAK1 or Smad1 in 700 µl lysis buffer free of DTT; collected on Protein A/G Sepharose beads; immunoblot
[2] = biological target: Smad1 (mouse (endogenous in GA muscle)) (UniProt P70340); experiment: as above

Row | binding [1] | binding [2] | Molecule
1 | no binding | – | Smad4 (from UniProt P97471 1-551)
2 | binds | – | Smad1 (from UniProt P70340 1-465)
3 | – | binds | TGF-β-activated kinase 1 (TAK1) (enzyme, UniProt Q62073 1-579) MSTASAASSSSSSSASEMIEAPSQVLNFEEIDYKEIEVEEVVGRGAFGVVCKAKWRAKDVAIKQIESESERKAFIVELRQLSRVNHPNIVKLYGACLNPVCLVMEYAEGGSLYNVLHGAEPLPYYTAAHAMSWCLQCSQGVAYLHSMQPKALIHRDLKPPNLLLVAGGTVLKICDFGTACDIQTHMTNNKGSAAWMAPEVFEGSNYSEKCDVFSWGIILWEVITRRKPFDEIGGPAFRIMWAVHNGTRPPLIKNLPKPIESLMTRCWSKDPSQRPSMEEIVKIMTHLMRYFPGADEPLQYPCQYSDEGQSNSATSTGSFMDIASTNTSNKSDTNMEQVPATNDTIKRLESKLLKNQAKQQSESGRLSLGASRGSSVESLPPTSEGKRMSADMSEIEARIVATAGNGQPRRRSIQDLTVTGTEPGQVSSRSSSPSVRMITTSGPTSEKPARSHPWTPDDSTDTNGSDNSIPMAYLTLDHQLQPLAPCPNSKESMAVFEQHCKMAQEYMKVQTEIALLLQRKQELVAELDQDEKDQQNTSRLVQEHKKLLDENKSLSTYYQQCKKQLEVIRSQQQKRQGTS
